Laboratory results: patent US7795222B2 (Santen Pharmaceutical Co., Ltd., priority 2001, dated 2010)
Where a sequence shows no end group, the ends are not given.

Assay: general procedure: Boc solid-phase peptide synthesis; 4-(oxymethyl)phenylace[...] resin (truncated in excerpt)
Details: whole synthesis, 220 nm, TFA salt

Sequence: GSSSRRAP (Human)
- final HPLC purity: 98.6%
